According to article PMC12219365:
Results are given in words; binding and its absence hold for the method and conditions named. In cells and extracts the contact can be indirect. Some binding calls cover weakened binding; strength is not graded here.

The chains behind the UniProt entries cited, without tags or fusion partners. Residues count along the entry.
UniProt O00206, residues 24-839: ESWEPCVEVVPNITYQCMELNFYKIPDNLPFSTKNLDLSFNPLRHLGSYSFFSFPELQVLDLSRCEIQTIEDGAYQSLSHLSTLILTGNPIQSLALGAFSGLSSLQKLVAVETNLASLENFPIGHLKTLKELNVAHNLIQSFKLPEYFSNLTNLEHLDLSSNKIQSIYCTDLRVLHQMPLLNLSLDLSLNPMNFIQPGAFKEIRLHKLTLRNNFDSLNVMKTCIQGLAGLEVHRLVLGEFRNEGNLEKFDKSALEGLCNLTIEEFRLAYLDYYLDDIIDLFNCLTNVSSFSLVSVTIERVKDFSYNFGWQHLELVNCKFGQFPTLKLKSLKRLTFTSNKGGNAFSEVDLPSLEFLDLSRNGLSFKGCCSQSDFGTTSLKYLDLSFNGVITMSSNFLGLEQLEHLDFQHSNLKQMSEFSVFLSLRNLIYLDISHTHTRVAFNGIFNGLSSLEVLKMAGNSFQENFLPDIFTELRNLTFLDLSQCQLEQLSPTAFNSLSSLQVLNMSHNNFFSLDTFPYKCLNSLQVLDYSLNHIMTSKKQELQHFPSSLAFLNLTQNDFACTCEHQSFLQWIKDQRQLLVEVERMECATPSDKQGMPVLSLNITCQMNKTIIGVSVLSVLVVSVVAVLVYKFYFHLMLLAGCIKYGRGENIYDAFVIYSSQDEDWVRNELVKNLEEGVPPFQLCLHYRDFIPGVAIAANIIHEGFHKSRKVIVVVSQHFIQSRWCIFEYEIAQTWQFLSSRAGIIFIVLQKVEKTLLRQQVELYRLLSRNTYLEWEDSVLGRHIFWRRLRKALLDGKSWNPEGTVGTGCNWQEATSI
UniProt Q92508: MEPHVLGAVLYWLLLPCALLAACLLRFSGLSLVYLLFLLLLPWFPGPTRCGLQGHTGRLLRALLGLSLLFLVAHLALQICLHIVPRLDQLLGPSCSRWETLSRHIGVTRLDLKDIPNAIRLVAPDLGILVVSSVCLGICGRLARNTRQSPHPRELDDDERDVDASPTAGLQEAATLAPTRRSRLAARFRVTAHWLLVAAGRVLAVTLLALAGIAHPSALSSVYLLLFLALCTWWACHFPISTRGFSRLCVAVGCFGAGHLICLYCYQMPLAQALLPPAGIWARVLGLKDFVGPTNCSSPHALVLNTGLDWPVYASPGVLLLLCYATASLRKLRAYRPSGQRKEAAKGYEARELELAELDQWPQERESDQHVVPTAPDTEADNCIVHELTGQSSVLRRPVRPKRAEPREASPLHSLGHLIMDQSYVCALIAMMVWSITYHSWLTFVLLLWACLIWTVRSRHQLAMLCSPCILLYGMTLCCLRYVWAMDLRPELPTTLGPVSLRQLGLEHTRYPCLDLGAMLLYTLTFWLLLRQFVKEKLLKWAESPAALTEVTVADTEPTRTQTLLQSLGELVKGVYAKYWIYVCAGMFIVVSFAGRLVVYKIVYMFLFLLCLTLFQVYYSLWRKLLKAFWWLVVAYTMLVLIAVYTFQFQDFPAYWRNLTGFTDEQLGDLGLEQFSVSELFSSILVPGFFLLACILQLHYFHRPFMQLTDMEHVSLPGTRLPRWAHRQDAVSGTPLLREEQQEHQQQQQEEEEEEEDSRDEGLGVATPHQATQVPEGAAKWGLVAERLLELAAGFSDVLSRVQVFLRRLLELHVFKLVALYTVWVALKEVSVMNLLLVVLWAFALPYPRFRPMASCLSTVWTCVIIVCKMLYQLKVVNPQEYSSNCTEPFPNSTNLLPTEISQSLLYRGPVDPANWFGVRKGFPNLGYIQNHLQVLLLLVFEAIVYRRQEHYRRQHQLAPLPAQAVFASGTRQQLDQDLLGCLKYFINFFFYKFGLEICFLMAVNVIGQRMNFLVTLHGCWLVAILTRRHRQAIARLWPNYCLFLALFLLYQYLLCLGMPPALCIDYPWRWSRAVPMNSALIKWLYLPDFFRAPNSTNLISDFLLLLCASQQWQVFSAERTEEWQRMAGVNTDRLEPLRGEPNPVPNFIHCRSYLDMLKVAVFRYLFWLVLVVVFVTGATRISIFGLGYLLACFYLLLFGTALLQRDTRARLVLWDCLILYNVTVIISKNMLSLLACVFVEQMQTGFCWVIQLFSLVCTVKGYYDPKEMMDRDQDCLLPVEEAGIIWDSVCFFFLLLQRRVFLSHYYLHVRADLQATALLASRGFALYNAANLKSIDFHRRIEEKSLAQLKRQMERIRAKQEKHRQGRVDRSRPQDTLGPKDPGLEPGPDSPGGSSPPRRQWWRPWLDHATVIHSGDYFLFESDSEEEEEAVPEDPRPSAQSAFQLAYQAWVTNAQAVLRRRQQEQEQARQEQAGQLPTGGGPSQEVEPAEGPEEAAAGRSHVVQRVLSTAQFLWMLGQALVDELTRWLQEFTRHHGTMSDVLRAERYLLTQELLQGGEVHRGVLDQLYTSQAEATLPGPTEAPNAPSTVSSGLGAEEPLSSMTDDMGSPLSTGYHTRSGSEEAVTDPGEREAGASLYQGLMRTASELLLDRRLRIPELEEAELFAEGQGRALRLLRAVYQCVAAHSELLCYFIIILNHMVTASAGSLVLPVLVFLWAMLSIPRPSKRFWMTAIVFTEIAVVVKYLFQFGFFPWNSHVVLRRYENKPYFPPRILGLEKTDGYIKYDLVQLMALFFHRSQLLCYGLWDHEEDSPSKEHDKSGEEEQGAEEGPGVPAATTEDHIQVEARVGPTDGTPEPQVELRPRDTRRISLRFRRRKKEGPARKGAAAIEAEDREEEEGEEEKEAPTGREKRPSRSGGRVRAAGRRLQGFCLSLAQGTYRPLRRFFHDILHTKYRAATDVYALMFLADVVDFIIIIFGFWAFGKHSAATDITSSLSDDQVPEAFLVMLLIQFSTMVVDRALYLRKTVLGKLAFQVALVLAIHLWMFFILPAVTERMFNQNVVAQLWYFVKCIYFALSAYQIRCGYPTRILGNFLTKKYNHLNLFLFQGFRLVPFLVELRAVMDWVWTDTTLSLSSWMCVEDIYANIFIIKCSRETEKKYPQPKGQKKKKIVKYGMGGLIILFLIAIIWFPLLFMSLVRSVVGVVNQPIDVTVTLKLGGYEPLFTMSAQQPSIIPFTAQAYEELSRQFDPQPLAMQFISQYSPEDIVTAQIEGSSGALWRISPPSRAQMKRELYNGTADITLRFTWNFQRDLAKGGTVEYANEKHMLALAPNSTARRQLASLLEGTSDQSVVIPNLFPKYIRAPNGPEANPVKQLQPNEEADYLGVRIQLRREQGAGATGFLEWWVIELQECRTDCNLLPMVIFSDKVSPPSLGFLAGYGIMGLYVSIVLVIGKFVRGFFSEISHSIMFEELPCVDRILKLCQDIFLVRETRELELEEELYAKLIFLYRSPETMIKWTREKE

Target: toll-like receptor 4 (TLR4) (human (endogenous in BON-1)) (UniProt O00206)
Assay: co-IP; RIPA lysate of BON-1 cells treated with or without LPS; TLR4 antibody, magnetic beads (co-immunoprecipitation kit); TLR4 and PIEZO1 detected by SDS-PAGE and western blot

binding: binds
Substance: Piezo-type mechanosensitive ion channel component 1 (PIEZO1) (from UniProt Q92508 1-2521)
